# In PubChem BioAssay AID720504 (National Center for Advancing Translational Sciences (NCATS), 2013):
# By UniProt entry, the sequences of proteins in these tests, tags left out.
# UniProt P53350, whole entry, looked up: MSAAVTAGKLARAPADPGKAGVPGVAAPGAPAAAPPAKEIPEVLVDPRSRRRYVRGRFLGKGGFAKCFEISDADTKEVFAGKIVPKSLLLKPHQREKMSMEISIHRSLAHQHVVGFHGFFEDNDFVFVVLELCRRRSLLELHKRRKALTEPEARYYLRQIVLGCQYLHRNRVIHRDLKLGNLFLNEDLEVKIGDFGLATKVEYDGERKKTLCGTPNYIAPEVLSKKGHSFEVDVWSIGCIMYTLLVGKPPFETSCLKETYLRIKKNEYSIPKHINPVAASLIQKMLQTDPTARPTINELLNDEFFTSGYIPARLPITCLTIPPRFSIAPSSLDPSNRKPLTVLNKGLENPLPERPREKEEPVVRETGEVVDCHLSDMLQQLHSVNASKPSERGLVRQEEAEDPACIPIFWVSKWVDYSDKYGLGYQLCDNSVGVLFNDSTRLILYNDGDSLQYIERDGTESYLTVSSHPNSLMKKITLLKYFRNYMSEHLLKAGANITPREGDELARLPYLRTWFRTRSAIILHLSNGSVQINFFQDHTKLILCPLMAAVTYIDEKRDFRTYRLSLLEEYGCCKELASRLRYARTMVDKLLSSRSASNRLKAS
# The campaign covered roughly 360,000 compounds. About 10,000 (2.8%) were called active. The inconclusive results got no clear call from the source; some entries with a clear call stand among them for comparison. Calls follow the shape of the dose curve; as a rule, active = well fitted inhibition curve with a large enough effect; inconclusive = small, poorly fitted or top-dose-only effect; inactive = flat fitted curve, though single readings scatter. Potencies beside an inconclusive call are fits to weak or partial responses and may not hold up.
# Target: Serine/threonine-protein kinase PLK1 (Homo sapiens) (UniProt P53350)
# Experiment: qHTS for Inhibitors of PLK1-PDB (polo-like kinase 1 - polo-box domain): Primary Screen; also: nearly all actives have a fitted effect of over 65% in size; as to max response, negative = inhibition: series mostly up to about 57 µM
# Details: Plk1 PBD binding of FITC phosphopeptide, fluorescence polarization
# % is scaled to controls: 0 for no effect and ±100 for the full control effect; potency is read from the fitted curve at half-maximal effect.
SMILES,"max response, negative = inhibition",Potency
O=C(Cc1ccccc1F)Nc1cc(S(=O)(=O)N2CCOCC2)ccc1N1CCCC1,inactive: -9.27%,
O=C(NC(=S)N1CCN(c2nc(-c3ccccc3)cs2)CC1)c1cccnc1,,"inconclusive: 29.9 µM [inhibitor, single point]"
COc1cccc(/C=N/n2c(-c3n[nH]c4c3CCC4)n[nH]c2=S)c1O,,"inconclusive: 29.9 µM [inhibitor, partial curve]"
O=[N+]([O-])c1cc(-c2cnc3ccccc3n2)ccc1Cl,,"inconclusive: 23.8 µM [inhibitor, partial curve]"
Cc1ccc(C)c(C(=O)COC(=O)CNS(=O)(=O)c2ccccc2)c1,,"inconclusive: 16.8 µM [inhibitor, partial curve]"
O=C(Nc1ccc(F)c(Cl)c1)Nc1cnccn1,inactive: -12.4%,
Cc1ccc(NC(=O)c2cc(NC(=O)CCCC(=O)O)ccc2Cl)cc1Cl,,"inconclusive: 33.6 µM [inhibitor, single point]"
O=S(=O)(c1ccc(=S)[nH]c1)N1CCCCCC1,,"inconclusive: 15 µM [inhibitor, partial curve]"
CN(C(=O)c1cccc(C#N)c1)c1nnc(-c2ccccn2)s1,,"inconclusive: 23.8 µM [inhibitor, partial curve]"
Cc1noc(NS(=O)(=O)c2ccc(NC(=O)c3oc4ccc(Cl)cc4c3C)cc2)c1C,,"inconclusive: 26.7 µM [inhibitor, single point]"
O=C(Cn1ncc2c1-c1ccccc1OC2)N1CCc2ccccc21,inactive: 0.26%,
NC(N)=N/N=C/c1cccc(Cl)c1Cl,inactive: -4.22%,
CCOc1ccc(NC(=O)N(CCN2CCOCC2)Cc2ccc3c(c2)CCCN3CC)cc1,inactive: -0.108%,
Cc1ccc2nc(N/C(=N/S(=O)(=O)c3ccc(F)cc3)c3ccccc3)sc2c1,,"inconclusive: 37.7 µM [inhibitor, single point]"
CCOC(=O)C(CC)n1cnc2c(nnn2-c2ccc(OC)cc2)c1=O (configuration not stated),inactive: -0.343%,
O=C(/C(=C/c1ccncc1)n1ccnc1)c1ccc(Cl)cc1Cl,,active: 26.7 µM
CC1(C)Nc2ccc(O)cc2-c2c1ssc2=S,,active: 26.7 µM
O=C(O)C(c1ccccc1)N1C(=O)/C(=C/c2cccs2)SC1=S (configuration not stated),,"inconclusive: 37.7 µM [inhibitor, single point]"
COCc1c(Br)c(C)nc2sc3c(=O)[nH]nnc3c12,inconclusive: -36.3% [inhibitor],
COc1cc(C(=O)O/N=C2\C=CC(=O)C=C2C)cc(OC)c1OC,inconclusive: -31% [inhibitor],
Clc1ccc(-c2cc3ccccc3nc2N2CCOCC2)cc1,,active: 15 µM
c1ccc(-c2ccccc2OCCCN2CCCC2)cc1,inactive: -0.516%,
O=C(COc1cc2oc(=O)c3c(c2cc1Cl)CCCC3)NCc1cccnc1,,"inconclusive: 21.2 µM [inhibitor, partial curve]"
CC(=O)c1ccc(NC(=O)CSc2nc(=O)cc(N)n2-c2ccccc2)cc1,inactive: -3.13%,

# Compounds listed so far that contain a thiophene ring, fused or not (2):
SMILES,"max response, negative = inhibition",Potency
O=C(O)C(c1ccccc1)N1C(=O)/C(=C/c2cccs2)SC1=S (configuration not stated),,"inconclusive: 37.7 µM [inhibitor, single point]"
COCc1c(Br)c(C)nc2sc3c(=O)[nH]nnc3c12,inconclusive: -36.3% [inhibitor],

# (cont.)

SMILES,"max response, negative = inhibition",Potency
COc1ccc(C2C(C(=O)c3ccco3)=C(O)C(=O)N2CCc2ccccc2)cc1OC (configuration not stated),inactive: -1.7%,
COc1ccc(CN2CN(C(C)C)CSC2=S)cc1,,"inconclusive: 26.7 µM [inhibitor, partial curve]"
CN(C)S(=O)(=O)c1cc(NC(=O)COC(=O)CCSc2ccc(Cl)cc2)ccc1Cl,,"inconclusive: 11.9 µM [inhibitor, partial curve]"
COc1ccc(CC(=O)Nc2ccc(S(=O)(=O)Nc3ncccn3)cc2)cc1,,"inconclusive: 29.9 µM [inhibitor, single point]"
COC(=O)/C=C/C(=O)Nc1ccc(O)c(Cl)c1,inactive: -13.4%,
Nc1c(NCCN2CCCCC2)c2ccccc2oc1=O,,"inconclusive: 26.7 µM [inhibitor, single point]"
O=C(/C=C/c1cccc(Cl)c1)c1ccc([N+](=O)[O-])o1,,active: 6.7 µM
CCCn1c(=O)c(C(=O)NNS(=O)(=O)c2ccc(C)cc2)c(O)c2ccccc21,,"inconclusive: 11.9 µM [inhibitor, partial curve]"
S=c1[nH]nc(SCc2ccccc2)c2[nH]cnc12,,"inconclusive: 26.7 µM [inhibitor, partial curve]"
C=CCn1nnnc1-c1cccc(Cl)c1,,active: 26.7 µM
O=C(Nc1ccccc1)/C(=C/c1ccccc1)c1ccccc1,,"inconclusive: 21.2 µM [inhibitor, single point]"
CC(=O)c1ccccc1C(=O)N1CCCC(CNC(=O)c2ccccc2Cl)C1 (configuration not stated),,active: 26.7 µM
COC(=O)c1nc(NC(=S)NC(=O)c2cccs2)sc1C,,"inconclusive: 26.7 µM [inhibitor, partial curve]"
CC1=NN(C(=O)COc2ccc(C)c(C)c2)C(O)(c2ccccc2)C1 (configuration not stated),,"inconclusive: 29.9 µM [inhibitor, single point]"
COc1ccc(C2CC(c3cccs3)=NN2c2nc(-c3ccccc3)cs2)cc1OC (configuration not stated),,"inconclusive: 37.7 µM [inhibitor, single point]"
COc1ccc2c(c1)C(C)=CC(C)(C)N2S(=O)(=O)c1ccc(C)cc1,,"inconclusive: 37.7 µM [inhibitor, single point]"
COc1ccc(N2CCN(c3nc(Cl)nc(N4CCOCC4)n3)CC2)cc1,inactive: -6.94%,
Brc1ccc(CN2C3=NCCCN3c3ccccc32)cc1,,"inconclusive: 21.2 µM [inhibitor, partial curve]"
CCn1nc(C)cc1C(=O)Sc1cccc(Br)c1,,"inconclusive: 10.6 µM [inhibitor, partial curve]"
CCn1c2ccccc2c2n[nH]c(=S)nc21,,"inconclusive: 18.9 µM [inhibitor, partial curve]"
COc1ccc(NC(=O)c2c3c(nc4ccccc24)CCC3)cc1S(=O)(=O)N1CCOCC1,inconclusive: -34% [inhibitor],
O=C(O)CCC(=O)NNc1ncnc2ccccc12,inactive: -8.05%,
CCOC(=O)NC(Nc1sc2c(c1C(N)=O)CCCC2)(C(=O)OCC)C(F)(F)F (configuration not stated),,"inconclusive: 23.8 µM [inhibitor, partial curve]"
